Results: PubChem BioAssay (NCATS)
Inconclusive means that the source gave no clear call. Such entries were picked first, then a sample of the others. For some of these results: Potencies beside an inconclusive call are fits to weak or partial responses and may not hold up. Active and inactive are the calls of the source. Calls follow the shape of the full dose curve.

Key:
[1] = Primary qHTS for Vero E6 cytotoxicity: counterscreen for inhibitors of SARS-S pseudo-typed particle cell entry (AID 1479150); settings: activity change, negative = cytotoxicity: at 57.1 µM (top of the series) unless noted
[2] = Cytotoxicity counterscreen for inhibitors of SARS-CoV-2 cell entry (AID 1645845); settings: activity change, negative = cytotoxicity: at 57.1 µM (top of the series) unless noted; also: nearly all actives have a fitted effect of over 50% in size
In short: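 Expi293F/hACE2 cells seeded overnight; cpd pin-transferred in DMSO, 1 h preincubation, + media, 48 h 37 C 5% CO2; ATPLite 1step luminescence; normalized to cells and no cells.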

[3] = Confirmatory qHTS for VERO E6 Cytotoxicity Assay: Counterscreen for SARS-CoV-2 CPE Assay (AID 1508605); also: nearly all actives have a fitted effect of over 60% in size
[4] = Primary qHTS to identify inhibitors of SARS-CoV-2 cell entry (AID 1645846); settings: activity change, negative = inhibition: at 57.1 µM (top of the series); also: nearly all actives have a fitted effect of over 45% in size
In short: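 Using luciferase-reporting pseudoviruses carrying Wuhan-Hu-1 spike, the screen tracks entry into stably ACE2-expressing cells over 48 hr. Activity is expressed relative to spike particles versus particles lacking any fusion protein.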

[5] = Confirmatory qHTS for activators (rescue) of SARS-CoV-2 Cytopathic Effect (CPE) (AID 1508606); also: nearly all actives have a fitted effect of over 70% in size
[6] = Confirmatory qHTS to identify inhibitors of SARS-CoV-2 cell entry (AID 1645844); settings: SARS-CoV-2 pseudotyped particle cell entry, luciferase; series mostly up to 57.2 µM; also: nearly all actives have a fitted effect of over 45% in size
In short: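 HEK293-ACE2 cells (Expi293F stably expressing human ACE2) were pretreated with compounds for 1 hr at 37C, then infected with MLV-based particles carrying Wuhan-Hu-1 spike (C-terminal 19-aa truncation). Luciferase luminescence read after 48 hr; normalized to spike PP (100%) and bald PP (0%).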

[7] = Validation screen for inhibitors of Lassa infection (AID 463096)
[8] = VSVG counterscreen qHTS to identify inhibitors of SARS-CoV-2 cell entry (AID 1645847); settings: VSV-G pseudotyped particle entry, luciferase; activity change, negative = inhibition: at 57.2 µM (top of the series); also: nearly all actives have a fitted effect of over 65% in size
In short: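 Entry of VSV-G pseudotyped particles into human ACE2-expressing HEK293 cells was measured by luciferase luminescence 48 h after infection, with compound added 1 h beforehand.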
Potency is read from the fitted curve at half-maximal effect.

COc1ccc(CC2c3cc(OC)c(OC)cc3CC[N+]2(C)CCC(=O)OCCCCCOC(=O)CC[N+]2(C)CCc3cc(OC)c(OC)cc3C2Cc2ccc(OC)c(OC)c2)cc1OC (stereo unspecified)
Potency [1]: inconclusive: 39.8 µM [cytotoxic, partial curve, poor fit]

Cc1ccccc1N1CCN(CCc2nnc3n2CCCC3)CC1
Potency [1]: inactive
Potency [2]: inactive

CC(=O)O[C@@H]1C[C@H](O)[C@@]23CO[C@H](O)[C@]1(C)C2C[C@@H](O)[C@]1(C)C3C(=O)[C@H](OC(C)=O)[C@@]2(C)[C@H](c3ccoc3)C[C@H]3O[C@]321 (stereo partly specified)
Potency [3]: inconclusive: 2.12 µM [cytotoxic, partial curve]

O=C(C1CCCCC1)N1CC(=O)N2CCc3ccccc3C2C1 (stereo unspecified)
Potency [1]: inactive

CC(C)[C@H]1CC[C@H](C)C[C@H]1O
Potency [1]: inactive
Potency [4]: inconclusive: 28.2 µM [inhibitor, partial curve, poor fit]

CCCCOc1ccc(C[N+]2(C)C3CCC2CC(OC(=O)[C@H](CO)c2ccccc2)C3)cc1 (stereo partly specified)
Potency [1]: inactive

CN(C)C(=O)NC1(c2ccccc2)CCN(CCC[C@]2(c3ccc(Cl)c(Cl)c3)CCCN(C(=O)c3ccccc3)C2)CC1
Potency [3]: inconclusive: 12.6 µM [cytotoxic, single point]
Potency [5]: inactive

O=S(=O)(c1cccc2ccccc12)n1ccc2ccc(N3CCN4CCCC4C3)cc21 (stereo unspecified)
Potency [3]: inconclusive: 12.6 µM [cytotoxic, single point]
Potency [5]: active: 11.2 µM

Cc1cc(N2CCN(C(=O)Oc3ccc(-c4ccccc4)cn3)CC2)c2ccccc2n1
Potency [3]: inconclusive: 12.6 µM [cytotoxic, single point]
Potency [5]: inconclusive: 11.2 µM [activator, partial curve]

CCc1ccc(N(CC(C)C)S(=O)(=O)c2ccc(OCC3CCOCC3)c(CO)c2)cc1
Potency [3]: inconclusive: 11.2 µM [cytotoxic, single point]
Potency [5]: inconclusive: 11.2 µM [activator, single point]
Potency [6]: inconclusive: 34.1 µM [inhibitor, single point]

CN(C)c1nc(NC2CCC(NCCc3ccc(Br)cc3OC(F)(F)F)CC2)nc2ccccc12 (stereo unspecified)
Potency [3]: active: 3.98 µM
Potency [5]: inactive

COc1cc2nc(N3CCCCC3)nc(NC3CCN(Cc4ccccc4)CC3)c2cc1OC
Potency [3]: active: 10 µM
Potency [5]: inconclusive: 3.98 µM [activator, single point]

Oc1ccc(-c2nc(-c3ccc(F)cc3)c(-c3ccncc3)[nH]2)cc1
Potency [7]: inconclusive: 12.6 µM [inhibitor, single point]
Potency [3]: inconclusive: 14.1 µM [cytotoxic, single point]
Potency [5]: inconclusive: 2.24 µM [activator, full curve]
Potency [6]: inconclusive: 42.9 µM [inhibitor, single point]
Potency [4]: inconclusive: 8.91 µM [inhibitor, partial curve, poor fit]
Potency [8]: active: 3.04 µM

COC(=O)C1=C(C)NC(C)=C(C(=O)O[C@@H]2CCCN(Cc3ccccc3)C2)[C@@H]1c1cccc([N+](=O)[O-])c1
Potency [3]: active: 11.2 µM
Potency [5]: inactive

CCNCCc1ccc(CN(CC)c2cc(OC)ccc2[C@@H]2CCc3cc(O)ccc3C2)cc1
Potency [3]: inconclusive: 12.6 µM [cytotoxic, single point]
Potency [5]: inconclusive: 3.55 µM [activator, partial curve]
Potency [2]: inconclusive: 39.8 µM [cytotoxic, single point]
Potency [4]: active: 31.6 µM

CCN(CC)Cc1cccc(/C=C/c2nc3ccc(F)cc3c(=O)n2-c2ccccc2Cl)n1
Potency [3]: inconclusive: 12.6 µM [cytotoxic, partial curve]
Potency [5]: inconclusive: 10 µM [activator, partial curve]

N#Cc1ccc(O[C@@H]2c3ccccc3C[C@H]2N2CCC[C@@H](N)C2)c(Cl)c1
Potency [3]: inconclusive: 11.2 µM [cytotoxic, partial curve]
Potency [5]: inconclusive: 11.2 µM [activator, partial curve]

Cc1cccc2c1CC[C@H](CN1CCC(c3c(Cl)cccc3Cl)CC1)C[C@@H]2O
Potency [3]: inconclusive: 8.91 µM [cytotoxic, partial curve]
Potency [5]: inconclusive: 5.01 µM [activator, partial curve]

C/C(=N\NC(=S)N1CCC1)c1ccccn1
Potency [3]: inconclusive: 0.316 µM [cytotoxic, full curve]
Potency [5]: inconclusive: 1.12 µM [activator, full curve]
Potency [2]: inconclusive: 12.6 µM [cytotoxic, full curve, poor fit]

CCC(C)CNCC(=O)N1CCC2SC=CC2C1COc1cccc(C)c1 (stereo unspecified)
Potency [3]: inactive
Potency [5]: inconclusive: 12.6 µM [activator, single point]

CN(C)CCOC(C)(c1ccccc1)c1ccc(Cl)cc1 (stereo unspecified)
Potency [3]: inconclusive: 10 µM [cytotoxic, single point]
Potency [5]: inconclusive: 5.01 µM [activator, full curve]
